Results are given in words; binding and its absence hold for the method and conditions named. Some results given as binding are weak or reduced against the parent protein; the word gives no strength.
Legend:
[1] = biological target: hepcidin-specific lipocalin mutein of SEQ ID NO: 10; experiment: ECLA competition, FIG. 1 legend
[2] = biological target: hepcidin-specific lipocalin mutein of SEQ ID NO: 10; experiment: enzyme-linked absorption competition assay, FIG. 3 legend
[3] = biological target: hepcidin-specific lipocalin mutein of SEQ ID NO: 10; experiment: enzyme-linked fluorescence competition assay, FIG. 2 legend
[4] = biological target: hepcidin-specific lipocalin mutein of SEQ ID NO: 10; experiment: ECLA competition, mutein coated on MSD plate, competitor Sulfo-Tag labeled control hepcidin (0.6 nM)
[5] = biological target: hepcidin-specific lipocalin mutein of SEQ ID NO: 8; experiment: ECLA competition, mutein coated on MSD plate, competitor hepcidin-C-Bio (0.5 nM), Streptavidin-Sulfo-Tag detection
[6] = biological target: hepcidin-specific lipocalin mutein of SEQ ID NO: 10; experiment: enzyme-linked fluorescence competition assay, mutein coated on plate, competitor hepcidin-C-Bio (0.6 nM), Extravidin-HRP detection
[7] = biological target: hepcidin-specific lipocalin mutein of SEQ ID NO: 8; experiment: ECLA competition, 0.5 nM mutein in solution, hepcidin-C-Bio on Neutravidin plate, anti-NGAL IgG / anti-rabbit IgG Sulfo-Tag detection
[8] = biological target: hepcidin-specific lipocalin mutein of SEQ ID NO: 10; experiment: enzyme-linked absorption (450 nm) competition assay, mutein coated on plate, competitor hepcidin-C-Bio (0.3 nM), Extravidin-HRP detection
[9] = biological target: hepcidin-specific lipocalin mutein of SEQ ID NO: 10; experiment: ECLA competition, mutein coated on MSD plate, competitor Sulfo-Tag labeled control hepcidin
[10] = biological target: hepcidin-specific lipocalin mutein of SEQ ID NO: 10; experiment: enzyme-linked fluorescence competition assay, mutein coated on plate, competitor hepcidin-C-Bio

Measured: binding

DTHFPICIFCCGCCHRSKCGMCCKT (peptide, UniProt P81172 60-84, looked up) [non-control hepcidin (unlabeled, unconjugated; PeptaNova, Cat. No: 4392-s)]
not listed: [9] | [10]
binds: all other assays above

DTHFPICIFCCGCCHRSKCGMCCKT (peptide, UniProt P81172 60-84, looked up) [non-control hepcidins in human serum samples]
binds: [9] | [10]

DTHFPICIFCCGCCHRSKCGMCCKT (peptide, UniProt P81172 60-84, looked up, C-terminal biotin) [C-terminal biotinylated control hepcidin (hepcidin-C-Bio, Bachem AG, custom synthesized)]
binds: [2] | [3]

Reference: patent US20150369821A1 (Pieris, published 2015)
